According to article doi:10.1101/2020.07.20.212142v1 (bioRxiv, 2020):

How the values were obtained:
[1] = tested on: dechorionated and dewaxed Drosophila melanogaster hosts; type: in vivo; details: for developmental stage after incubation (in words): 20 µM peptide, within 12 hours
[2] = tested on: dechorionated Drosophila melanogaster hosts; type: in vivo; details: dechorionated-only hosts; 20 µM peptide overnight, room temperature

TAMRA-GEGEGEG
embryos transitioned to the larval state ([1]; 20 µM peptide overnight, room temperature): 70%

TAMRA-MRKRHASRREK
developmental stage after incubation (in words) [1]: remained at the embryo stage

cyclo[Glut-MRKRHASRRE-K*]-K(5-TAMRA) (sidechain bridge or staple)
transition to larval state (in words) [2]: did not transition to larvae | developmental stage after incubation (in words) [1]: progressed to the larval stage
